Source: paper PMC3828283
Residue numbers refer to the chain shown, from its start. These are yes or no findings as the source states them, for the method shown. For some assays here: In cells and extracts the contact can be indirect. Some results given as binding are weak or reduced against the parent protein; the word gives no strength. For some assays here: Sequences can lack the tags named with a protein. Values belong to the molecule of their own block, whether it stands above or below them.

Protein sequences, listed by entry. Tags and fused reporters are not part of them. Lines headed by an entry give the natural chain unless they say otherwise; changes in a name come on top. Residues count along the entry.
UniProt P62136: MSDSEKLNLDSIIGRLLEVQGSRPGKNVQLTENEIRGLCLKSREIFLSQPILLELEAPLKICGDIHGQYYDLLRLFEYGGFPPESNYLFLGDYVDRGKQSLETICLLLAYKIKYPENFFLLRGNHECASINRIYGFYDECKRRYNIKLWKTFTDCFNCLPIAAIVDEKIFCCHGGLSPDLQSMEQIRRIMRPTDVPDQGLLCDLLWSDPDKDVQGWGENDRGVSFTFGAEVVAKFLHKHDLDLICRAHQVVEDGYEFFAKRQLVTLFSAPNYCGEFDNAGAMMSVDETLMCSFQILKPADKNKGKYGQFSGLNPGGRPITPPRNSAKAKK
MBP-PP1 (amino acid 1-187): residues 1-187 of P62136
MBP-PP1 (amino acid 163-330): residues 163-330 of P62136

How the values were obtained:
[1] = target: MBP-PP1 (amino acid 1-187) (UniProt P62136); test: far-Western, overlay or dot blot; purified MBP fusion proteins separated by SDS-PAGE, transferred to nitrocellulose and incubated with GST-PLN or GST-PP1 (aa1-330); probed with anti-GST; both purified
[2] = target: MBP-PP1 (amino acid 163-330) (UniProt P62136); test: as above
[3] = target: T1, GST-Inhibitor-1 G147D (human) (UniProt Q13522); test: far-Western, overlay or dot blot; equal amounts of GST-Inhibitor-1 or GST-Hsp20 proteins (wild type or variant, with or without PKA phosphorylation) separated by SDS-PAGE and incubated with MBP-PP1 (aa1-330); detection with MBP antibody; both purified
T1 sequence: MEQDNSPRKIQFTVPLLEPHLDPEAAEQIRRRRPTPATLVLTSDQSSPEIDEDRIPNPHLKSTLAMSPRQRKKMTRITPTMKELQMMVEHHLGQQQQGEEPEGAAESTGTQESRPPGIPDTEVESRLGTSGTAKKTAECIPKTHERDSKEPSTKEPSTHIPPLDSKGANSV

GST-Hsp20 P20L (human) = target: T2, GST-Hsp20 P20L (human) (UniProt O14558); test: as above
T2 sequence: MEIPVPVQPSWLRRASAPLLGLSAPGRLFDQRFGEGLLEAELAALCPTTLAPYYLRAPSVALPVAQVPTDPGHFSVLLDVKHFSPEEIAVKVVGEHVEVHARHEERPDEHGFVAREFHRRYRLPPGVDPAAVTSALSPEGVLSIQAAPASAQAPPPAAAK

[4] = target: T3, GST-Inhibitor-1 wild type (human) (UniProt Q13522); test: as above
T3 sequence: T1 sequence with D147G

GST-Hsp20 wild type = target: T4, GST-Hsp20 wild type (UniProt O14558); test: as above
T4 sequence: T2 sequence with L20P

[5] = target: T3, GST-Inhibitor-1 wild type (human); test: pull-down; GST or GST fusion protein bound to glutathione-Sepharose 4B mixed with 0.5 mg of mouse cardiac homogenates (untreated or treated beforehand with PKA) at 4°C for 16 h; 10 mM NaPO4 pH 7.2, 120 mM NaCl; western blot with PLN or PP1 antibody; only the target purified
[6] = target: T5, GM of cardiac homogenates (mouse (endogenous in cardiac homogenates)) (UniProt Q99MR9); test: co-IP; co-immunoprecipitation in PKA or non-PKA treated cardiac homogenates; data not shown
T5 sequence: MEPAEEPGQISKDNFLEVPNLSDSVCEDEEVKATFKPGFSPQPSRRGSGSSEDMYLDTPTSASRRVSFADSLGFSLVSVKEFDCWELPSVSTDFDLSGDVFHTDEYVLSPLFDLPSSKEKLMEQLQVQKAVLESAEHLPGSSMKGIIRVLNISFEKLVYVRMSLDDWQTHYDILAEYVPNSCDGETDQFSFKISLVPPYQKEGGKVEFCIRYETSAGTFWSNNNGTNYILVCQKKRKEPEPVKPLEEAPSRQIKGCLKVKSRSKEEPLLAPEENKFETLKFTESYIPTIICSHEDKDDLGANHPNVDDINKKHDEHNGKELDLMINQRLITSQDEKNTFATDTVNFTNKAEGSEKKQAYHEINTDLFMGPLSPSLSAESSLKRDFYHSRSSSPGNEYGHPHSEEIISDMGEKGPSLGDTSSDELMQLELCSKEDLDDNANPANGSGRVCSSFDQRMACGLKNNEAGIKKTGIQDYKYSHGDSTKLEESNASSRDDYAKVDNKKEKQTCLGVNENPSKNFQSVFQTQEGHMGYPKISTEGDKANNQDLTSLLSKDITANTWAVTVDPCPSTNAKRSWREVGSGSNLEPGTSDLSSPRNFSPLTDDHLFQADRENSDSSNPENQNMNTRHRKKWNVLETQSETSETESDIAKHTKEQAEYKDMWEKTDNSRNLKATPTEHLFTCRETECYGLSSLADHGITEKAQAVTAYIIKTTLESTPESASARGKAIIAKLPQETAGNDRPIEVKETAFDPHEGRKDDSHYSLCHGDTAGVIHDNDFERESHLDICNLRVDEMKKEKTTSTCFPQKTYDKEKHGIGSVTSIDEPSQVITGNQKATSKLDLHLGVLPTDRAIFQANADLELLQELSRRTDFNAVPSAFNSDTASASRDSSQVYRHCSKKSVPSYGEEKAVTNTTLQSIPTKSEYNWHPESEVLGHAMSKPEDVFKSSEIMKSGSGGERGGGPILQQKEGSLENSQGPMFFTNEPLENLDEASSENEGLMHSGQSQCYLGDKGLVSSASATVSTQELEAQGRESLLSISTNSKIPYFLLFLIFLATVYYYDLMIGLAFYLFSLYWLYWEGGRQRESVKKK

binding [1]: no binding
binding [2]: no binding
Molecule: GST-PLN (amino acids 1-37) (from UniProt P26678 1-37) (domain or fragment)

binding [3]: binds
binding (GST-Hsp20 P20L (human)): binds
binding [4]: binds
binding (GST-Hsp20 wild type): binds
Molecule: MBP-PP1 (aa1-330) (from UniProt P62136 1-330) (enzyme)

binding [5]: no binding
binding [6]: binds
B1: native PLN protein of cardiac homogenates (protein, UniProt P61014 1-52)
chain: MEKVQYLTRSAIRRASTIEMPQQARQNLQNLFINFCLILICLLLICIIVMLL
